# These are yes or no findings as the source states them, for the method shown. Binding seen in cells or lysates may run through a third protein. Some results given as binding are weak or reduced against the parent protein; the word gives no strength.
# Sequences of proteins named here, by UniProt entry; tags and fusion partners are left off. A change or cut given only in a name is not applied to a line headed by its entry.
# UniProt P19338: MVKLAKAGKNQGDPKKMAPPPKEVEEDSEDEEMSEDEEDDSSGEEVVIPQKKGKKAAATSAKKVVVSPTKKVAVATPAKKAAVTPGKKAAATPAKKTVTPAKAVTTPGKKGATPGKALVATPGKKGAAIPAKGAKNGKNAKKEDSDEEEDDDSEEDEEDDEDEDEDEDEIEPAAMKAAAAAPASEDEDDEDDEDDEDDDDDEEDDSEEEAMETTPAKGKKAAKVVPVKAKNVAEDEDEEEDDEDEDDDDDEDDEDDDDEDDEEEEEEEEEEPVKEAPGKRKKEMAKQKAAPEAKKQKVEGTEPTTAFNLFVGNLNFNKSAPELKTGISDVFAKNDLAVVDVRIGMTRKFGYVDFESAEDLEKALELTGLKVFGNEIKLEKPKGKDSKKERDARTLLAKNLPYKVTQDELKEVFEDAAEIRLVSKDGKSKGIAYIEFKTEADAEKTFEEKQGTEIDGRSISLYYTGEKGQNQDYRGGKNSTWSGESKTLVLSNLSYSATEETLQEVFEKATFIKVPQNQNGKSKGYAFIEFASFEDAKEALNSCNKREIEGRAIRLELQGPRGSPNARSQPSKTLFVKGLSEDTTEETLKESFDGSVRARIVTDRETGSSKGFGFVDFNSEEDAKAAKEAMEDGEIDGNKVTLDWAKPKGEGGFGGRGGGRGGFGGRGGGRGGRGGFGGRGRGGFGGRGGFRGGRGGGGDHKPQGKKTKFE
# B1: Endogenous COUP-TFII (protein, UniProt P24468 1-414)
# chain: MAMVVSTWRDPQDEVPGSQGSQASQAPPVPGPPPGAPHTPQTPGQGGPASTPAQTAAGGQGGPGGPGSDKQQQQQHIECVVCGDKSSGKHYGQFTCEGCKSFFKRSVRRNLSYTCRANRNCPIDQHHRNQCQYCRLKKCLKVGMRREAVQRGRMPPTQPTHGQFALTNGDPLNCHSYLSGYISLLLRAEPYPTSRFGSQCMQPNNIMGIENICELAARMLFSAVEWARNIPFFPDLQITDQVALLRLTWSELFVLNAAQCSMPLHVAPLLAAAGLHASPMSADRVVAFMDHIRIFQEQVEKLKALHVDSAEYSCLKAIVLFTSDACGLSDVAHVESLQEKSQCALEEYVRSQYPNQPTRFGKLLLRLPSLRTVSSSVIEQLFFVRLVGKTPIETLIRDMLLSGSSFNWPYMAIQ
# Target: Nucleolin Protein C23 (endogenous) (human (endogenous in MCF-7 and T47D)) (UniProt P19338)
# Experiment: co-IP; endogenous proteins; nuclear extract of MCF-7 cells; IP with COUP-TFII polyclonal antibody or nucleolin monoclonal antibody on magnetic beads in RIPA buffer, 4 h at 4°C; western blot; untreated cells, also cells treated with 10 µM CRO or AS1411 for 24 h, or with EtOH, 10 nM E2 or 100 nM 4-OHT for 1 h
binder,measurement,value
B1,binding,binds
